{"source": "PubChem BioAssay AID504467", "about": "(National Center for Advancing Translational Sciences (NCATS), 2011)", "note": "About 7,700 (2.3%) of roughly 330,000 compounds were called active. The inconclusive results got no clear call from the source; some entries with a clear call stand among them for comparison. Calls follow the shape of the dose curve; as a rule, active = well fitted inhibition curve with a large enough effect; inconclusive = small, poorly fitted or top-dose-only effect, or effect the other way; inactive = flat fitted curve, though single readings scatter. Potencies beside an inconclusive call are fits to weak or partial responses and may not hold up. Potency is read from the fitted curve at half-maximal effect.", "data": [{"assay": "qHTS screen for small molecules that inhibit ELG1-dependent DNA repair in human embryonic kidney (HEK293T) cells expressing luciferase-tagged ELG1; also: nearly all actives have a fitted effect of over 55% in size", "conditions": "HEK293T ELG1-luciferase reporter, luminescence, 16 h, DNA damage induced by 5-fluorouridine; series mostly up to 46.1 µM", "how_it_was_run": "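Reporter activity after DNA damage by 5-fluorouridine is monitored. Compound-treated cells incubate 16 hr at 37 °C, then ONE-Glo is added for 30 min before luminescence reading.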", "values": [{"smiles": "COc1ccccc1N1C(=NC(=O)C2CCCCC2)SC2CS(=O)(=O)CC21", "note": "(centres undefined)", "Potency": "inactive"}, {"smiles": "COc1ccc(S(=O)(=O)NC2(C(F)(F)F)NC(=O)N(CCc3ccccc3)C2=O)cc1", "note": "(centres undefined)", "Potency": "inconclusive: 20.6 µM [activator, partial curve]"}, {"smiles": "COc1ccccc1NS(=O)(=O)c1cc(N/C(=N\\S(=O)(=O)c2ccccc2)c2ccc(F)cc2)ccc1Cl", "Potency": "inconclusive: 25.9 µM [inhibitor, single point]"}, {"smiles": "COC(=O)c1ccc(CSc2nc3ccccc3o2)cc1", "Potency": "inconclusive: 8.2 µM [activator, partial curve]"}, {"smiles": "Cc1cc(OCC(=O)NCCCN2CCCC2=O)c2c(C)cc(=O)oc2c1", "Potency": "inconclusive: 29.1 µM [activator, partial curve, poor fit]"}, {"smiles": "CC1CCCN(S(=O)(=O)c2ccc(NC(=O)C3CCN(C(=O)C(C)(C)C)CC3)cc2)C1", "note": "(centres undefined)", "Potency": "inconclusive: 15.8 µM [inhibitor, single point]"}, {"smiles": "CCN(CC(=O)Nc1cccc(OC)c1)c1ncnc2sc(C)c(C)c12", "Potency": "inconclusive: 2.59 µM [inhibitor, partial curve, poor fit]"}, {"smiles": "CN(CC1CCCO1)S(=O)(=O)c1ccc(C(=O)NCc2ccccc2)cc1", "note": "(centres undefined)", "Potency": "inconclusive: 25.9 µM [inhibitor, single point]"}, {"smiles": "CC1CCCN(S(=O)(=O)c2ccc(S(=O)(=O)NC(C)c3cccs3)cc2)C1", "note": "(centres undefined)", "Potency": "inconclusive: 16.4 µM [inhibitor, partial curve]"}, {"smiles": "COc1cccc(CNCCOCCO)c1OC", "Potency": "inactive"}, {"smiles": "O=C(NCCSCc1ccco1)Nc1cccc(Cl)c1", "Potency": "inconclusive: 16.4 µM [activator, partial curve]"}, {"smiles": "CN(C)c1oc(-c2ccco2)nc1S(=O)(=O)c1ccc(Br)cc1", "Potency": "inactive"}, {"smiles": "Cc1cc(-n2c(C)cc(C(=O)CSc3ccc4c(c3)OCCO4)c2C)no1", "Potency": "inconclusive: 16.4 µM [inhibitor, single point]"}, {"smiles": "CCOC(=O)NNc1nncc2ccccc12", "Potency": "inactive"}, {"smiles": "O=C(NC1CCCCC1)c1ccccc1NC(=O)C1CC(=O)N(c2ccc(Cl)cc2)C1", "note": "(centres undefined)", "Potency": "inconclusive: 32.6 µM [inhibitor, single point]"}, {"smiles": "CC1(C)CC(NC(=O)c2ccc(-c3ccc([N+](=O)[O-])cc3)o2)CC(C)(C)N1", "Potency": "inconclusive: 20.6 µM [inhibitor, partial curve, poor fit]"}, {"smiles": "O=C(O)CCCc1ccc2c(c1)CCc1ccccc1-2", "Potency": "inconclusive: 3.55 µM [activator, partial curve]"}, {"smiles": "Cc1ccc(OCC(=O)NCCc2c[nH]c3ccccc23)cc1", "Potency": "inactive"}, {"smiles": "O=C(c1cnn(-c2nc3ccccc3s2)c1)c1ccccc1O", "Potency": "inconclusive: 16.4 µM [activator, partial curve]"}, {"smiles": "COc1ccc(-c2sc3ccccc3c2C#CC2(O)CCCCC2)cc1", "Potency": "inactive"}, {"smiles": "O=C(NCCOc1ccc(F)cc1)C1CCC(=O)N(CCN2CCOCC2)C1", "note": "(centres undefined)", "Potency": "inactive"}, {"smiles": "CCCn1cc(SCC(=O)Nc2nnc(C)s2)c2ccccc21", "Potency": "inactive"}, {"smiles": "O=C(c1cc(-c2ccc(Cl)cc2)n[nH]1)N1CCN(C(=O)c2ccco2)CC1", "Potency": "inactive"}, {"smiles": "Cc1noc(C)c1COc1ccc(C(=O)N2CCC(C(N)=O)CC2)cc1", "Potency": "inactive"}, {"smiles": "O=C(Nc1nc2c(F)cccc2s1)C1CC1", "Potency": "inconclusive: 18.3 µM [activator, single point]"}, {"smiles": "COc1ccc(OCC(=O)NNC(=O)c2ccccc2OCc2c(C)noc2C)cc1", "Potency": "inactive"}, {"smiles": "COc1ccc(N(CC(=O)Nc2cccc(N(C)S(C)(=O)=O)c2)S(=O)(=O)c2ccc(C)cc2)cc1", "Potency": "inconclusive: 29.1 µM [inhibitor, single point]"}, {"smiles": "COc1ccc(-c2c(-c3cc(OC)cc(OC)c3)n(C)c3ccc(-c4ccc(OC)c(F)c4)cc23)cc1", "Potency": "inconclusive: 16.4 µM [activator, single point]"}, {"smiles": "CCNC(=S)NNC(=O)c1nn(C)c(C)c1Cl", "Potency": "inconclusive: 20.6 µM [activator, partial curve]"}, {"smiles": "Clc1cc(NCc2ccccc2)ncn1", "Potency": "inconclusive: 31.6 µM [activator, single point]"}, {"smiles": "Cc1nnc(SCC(=O)Nc2cccc(Br)c2)s1", "Potency": "inactive"}, {"smiles": "O=C(c1cc(=O)[nH]c2ccccc12)N(Cc1nnc(-c2ccccc2Cl)o1)C1CC1", "Potency": "inconclusive: 16.4 µM [inhibitor, partial curve]"}, {"smiles": "O=C1C2C3C=CC(CO)(O3)C2C(=O)N1c1ccc(-c2ccccc2)cc1", "note": "(centres undefined)", "Potency": "inconclusive: 20.6 µM [activator, partial curve]"}, {"smiles": "CCOc1ccc(C(C)NC(=S)NCc2ccc(F)cc2)cc1", "note": "(centres undefined)", "Potency": "inconclusive: 16.4 µM [inhibitor, single point]"}, {"smiles": "O=C(Nc1ccc(N2CCN(Cc3ccccc3)CC2)cc1)c1cccnc1", "Potency": "inconclusive: 11.2 µM [inhibitor, single point]"}, {"smiles": "Cc1nn(-c2ccccc2)c(Cl)c1/C=N/NC(=O)c1ccnn1C", "Potency": "inconclusive: 7.3 µM [activator, partial curve]"}, {"smiles": "C[C@@H]1CN([C@@H](C)CO)C(=O)c2cc(NS(C)(=O)=O)ccc2O[C@H]1CN(C)Cc1ccc(Oc2ccccc2)cc1", "Potency": "inconclusive: 2.91 µM [inhibitor, full curve]"}, {"smiles": "OCCCNc1c2ccccc2nc2ccccc12", "Potency": "inconclusive: 29.1 µM [inhibitor, single point]"}, {"smiles": "CCn1c(-c2cccnc2Cl)nc2ccccc21", "Potency": "inconclusive: 20.6 µM [activator, partial curve, poor fit]"}, {"smiles": "Cc1cc(Cl)ccc1NC(=O)c1ccc2c(c1)OCO2", "Potency": "inconclusive: 11.2 µM [activator, partial curve, poor fit]"}, {"smiles": "CSc1nc(=O)n(-c2ccccc2)c(C)c1C(C)=O", "Potency": "inconclusive: 29.1 µM [activator, single point]"}, {"smiles": "Cc1c(NC(=O)Nc2ccc3c(c2)OCO3)cccc1[N+](=O)[O-]", "Potency": "inconclusive: 16.4 µM [activator, partial curve]"}, {"smiles": "COc1ccccc1N1CCN(S(=O)(=O)c2ccc3c(c2)oc(=O)n3C)CC1", "Potency": "inactive"}, {"smiles": "COc1nc2c(C)cccc2cc1-c1noc(-c2ccco2)n1", "Potency": "inconclusive: 16.4 µM [activator, single point]"}, {"smiles": "O=NN(CCc1ccncc1)c1ccc(OCc2ccccc2)cc1", "Potency": "active: 0.82 µM"}, {"smiles": "CCCC(=O)Nc1cccc(-c2nc3ccccc3c(=O)o2)c1", "Potency": "inconclusive: 20.6 µM [activator, partial curve, poor fit]"}, {"smiles": "CCOC(=O)C1(Cc2cccc(OC)c2)CCN(Cc2ccc(OC)c(O)c2)CC1", "Potency": "inconclusive: 18.3 µM [inhibitor, partial curve]"}, {"smiles": "Cc1noc(C)c1C(=O)Nc1nc(-c2ccc(F)cc2)cs1", "Potency": "inactive"}, {"smiles": "CCSc1nnc(NC(=O)NCC(F)(F)F)s1", "Potency": "inconclusive: 4.11 µM [activator, full curve, poor fit]"}, {"smiles": "COc1cc(-c2nnc(SCC(=O)N3CCCC3)o2)cc(OC)c1OC", "Potency": "inconclusive: 18.4 µM [inhibitor, single point]"}, {"smiles": "c1ccc2c(Oc3ccc4c(c3)OCO4)nncc2c1", "Potency": "inconclusive: 1.84 µM [activator, full curve]"}, {"smiles": "CCOC(CNC(=O)CN1C(=O)COc2ccc(S(=O)(=O)N3CCCC3)cc21)OCC", "Potency": "inactive"}, {"smiles": "Cc1cccnc1NC(=O)CN1C(=O)c2ccccc2S1(=O)=O", "Potency": "inactive"}, {"smiles": "O=C(c1ccc2c3n(nc2c1)-c1ccc(Cl)cc1CO3)N1CCOCC1", "Potency": "inconclusive: 11.6 µM [activator, partial curve]"}, {"smiles": "CNc1nc(SCc2ccccc2Cl)nc2c1CCCC2", "Potency": "inconclusive: 18.4 µM [inhibitor, single point]"}, {"smiles": "Cc1ccc(C(=O)NCc2nnc(SCC(=O)Nc3sc4c(c3C#N)CCCC4)n2C)cc1", "Potency": "inconclusive: 16.4 µM [inhibitor, single point]"}, {"smiles": "CC(=O)N1c2ccc(S(=O)(=O)N(C)C3CCCCC3)cc2CC1C", "note": "(centres undefined)", "Potency": "inconclusive: 29.1 µM [activator, single point]"}, {"smiles": "CSc1ncccc1C(=O)Nc1nccs1", "Potency": "inactive"}, {"smiles": "O=C(NCC12CC3CC(CC(C3)C1)C2)c1cc2n(n1)C(C(F)(F)F)CC(c1ccco1)N2", "note": "(centres undefined)", "Potency": "inactive"}, {"smiles": "FC(F)(F)c1cccc(NC(=S)NNC(=S)Nc2cccc(C(F)(F)F)c2)c1", "Potency": "inconclusive: 29.1 µM [inhibitor, single point]"}, {"smiles": "Cc1ccc(-n2cnc3cc(NCc4cccs4)ccc32)cc1", "Potency": "inconclusive: 2.91 µM [activator, partial curve]"}, {"smiles": "CCOc1cccc(-c2c(C(=O)N/N=C/c3cccs3)nnn2-c2nonc2N)c1", "Potency": "inconclusive: 18.3 µM [inhibitor, single point]"}, {"smiles": "N#Cc1ccc(CSC2=NCCN2)cc1", "Potency": "inactive"}, {"smiles": "CCOc1cc(C(=O)Nc2ccc3c(c2)OCO3)ccc1OC(F)F", "Potency": "inconclusive: 9.2 µM [inhibitor, partial curve, poor fit]"}, {"smiles": "Cn1nc(-c2ccc(Cl)cc2)c2cc(C(=O)NCCCN3CCCC3)sc21", "Potency": "inconclusive: 18.4 µM [activator, single point]"}, {"smiles": "CCN(CC)CCOC(=O)c1ccc(NC(=O)c2ccc(Cl)c(S(=O)(=O)N3CCCCCC3)c2)cc1", "Potency": "inconclusive: 11.6 µM [inhibitor, partial curve]"}, {"smiles": "CCC(=O)N(CCc1ccc(S(N)(=O)=O)cc1)C1CC(=O)N(c2ccc(OC)cc2)C1=O", "note": "(centres undefined)", "Potency": "inactive"}, {"smiles": "CC1=Nc2cc(C(=O)N3CCCC3)ccc2Sc2c(C)ccc(C)c21", "Potency": "inconclusive: 3.66 µM [activator, full curve]"}, {"smiles": "Fc1cccc(NCc2cn3ccccc3n2)c1", "Potency": "inconclusive: 2.06 µM [activator, partial curve]"}]}]}
